For three substances, binding results are on record in publication PMC3248451.

By UniProt entry, the sequences of proteins in these tests, tags left out.
UniProt Q14457: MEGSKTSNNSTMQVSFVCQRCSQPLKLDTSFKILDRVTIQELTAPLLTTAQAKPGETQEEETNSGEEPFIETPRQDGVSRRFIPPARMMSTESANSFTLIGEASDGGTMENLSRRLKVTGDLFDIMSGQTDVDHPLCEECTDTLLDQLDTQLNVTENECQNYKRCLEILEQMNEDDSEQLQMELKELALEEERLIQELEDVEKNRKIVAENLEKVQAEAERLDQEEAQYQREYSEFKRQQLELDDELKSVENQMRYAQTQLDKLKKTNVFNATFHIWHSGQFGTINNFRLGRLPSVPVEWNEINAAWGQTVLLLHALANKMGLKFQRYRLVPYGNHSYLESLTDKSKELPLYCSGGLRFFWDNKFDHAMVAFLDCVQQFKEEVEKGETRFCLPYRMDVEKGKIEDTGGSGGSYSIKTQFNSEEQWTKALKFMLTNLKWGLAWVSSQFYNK
UniProt P10415: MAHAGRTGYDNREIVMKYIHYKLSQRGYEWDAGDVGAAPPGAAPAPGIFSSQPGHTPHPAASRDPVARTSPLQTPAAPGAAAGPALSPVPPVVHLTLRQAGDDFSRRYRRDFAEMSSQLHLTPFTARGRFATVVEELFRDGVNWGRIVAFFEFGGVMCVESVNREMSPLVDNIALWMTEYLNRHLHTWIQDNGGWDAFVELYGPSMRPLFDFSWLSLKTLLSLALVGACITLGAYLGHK

For assay [1], the target named is Beclin 1 (endogenous) (human (endogenous in HeLa)) (UniProt Q14457). The assay is described as follows: co-IP.
For assay [2], the target named is T1, E1B19K, the adenovirus BH3 domain protein, expressed from the infecting adenovirus (adenovirus (serotype not given)) (UniProt P03246).
T1 sequence: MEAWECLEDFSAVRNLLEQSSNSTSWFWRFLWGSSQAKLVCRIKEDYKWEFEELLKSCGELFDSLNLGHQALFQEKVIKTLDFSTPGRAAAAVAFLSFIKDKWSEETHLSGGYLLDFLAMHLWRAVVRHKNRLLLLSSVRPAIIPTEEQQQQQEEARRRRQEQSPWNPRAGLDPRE
The assay is described as follows: co-IP.

Assay [3] has as its target T2, wild-type E1B19K expressed from pcDNA.E1B19K (adenovirus (serotype not given)) (UniProt P03246).
T2 sequence: T1 sequence
The assay is described as follows: co-IP; HeLa cells transiently co-transfected with plasmids for wild-type or mutant E1B19K and wild-type (Flag-)Beclin 1; lysates collected 48 h later; IP and immunoblot. A general note: A western blot detects proteins with antibodies after separation by electrophoresis.

No constants are given. Whether binding was seen depends on the method and setting. Binding seen in cells or lysates may run through a third protein. Some entries that bind do so weakly or less than the wild type.

With “Bcl-2 (endogenous) (from UniProt P10415 1-239)”, the binding result in assay [1] is reported as “binds”.

Regarding “Flag-Beclin 1 (from UniProt Q14457 1-450)”, the binding result in assay [2] and in assay [3] was “binds” each time.

Regarding “Beclin 1 (endogenous) (from UniProt Q14457 1-450)”, in assay [2], the binding entry is “binds”.
